Data from the supplement of paper PMC12823440, “Inhibitors supercharge kinase turnover through native proteolytic circuits” (Nature, 2025).
Where a name gives a salt, the structure may show the parent alone. Some of the results follow. Hit calls seldom repeat between salt and free forms of one compound.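 Kinases were expressed as nanoluciferase fusions in K562 cells and luminescence was read every 4 h between 2 and 18 h as percent of control, DMSO set to 100% and a positive control to 0%. A time point counts as decreased when the signal drops significantly (2 sigma). The hit call is the authors' own, does not follow from the count of time points alone, and its rule is not shown.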

By UniProt entry, the sequences of proteins in these tests, tags left out. Where a name states a change or a piece, a line headed by the entry shows the natural chain unless it says otherwise.
UniProt Q9UM73: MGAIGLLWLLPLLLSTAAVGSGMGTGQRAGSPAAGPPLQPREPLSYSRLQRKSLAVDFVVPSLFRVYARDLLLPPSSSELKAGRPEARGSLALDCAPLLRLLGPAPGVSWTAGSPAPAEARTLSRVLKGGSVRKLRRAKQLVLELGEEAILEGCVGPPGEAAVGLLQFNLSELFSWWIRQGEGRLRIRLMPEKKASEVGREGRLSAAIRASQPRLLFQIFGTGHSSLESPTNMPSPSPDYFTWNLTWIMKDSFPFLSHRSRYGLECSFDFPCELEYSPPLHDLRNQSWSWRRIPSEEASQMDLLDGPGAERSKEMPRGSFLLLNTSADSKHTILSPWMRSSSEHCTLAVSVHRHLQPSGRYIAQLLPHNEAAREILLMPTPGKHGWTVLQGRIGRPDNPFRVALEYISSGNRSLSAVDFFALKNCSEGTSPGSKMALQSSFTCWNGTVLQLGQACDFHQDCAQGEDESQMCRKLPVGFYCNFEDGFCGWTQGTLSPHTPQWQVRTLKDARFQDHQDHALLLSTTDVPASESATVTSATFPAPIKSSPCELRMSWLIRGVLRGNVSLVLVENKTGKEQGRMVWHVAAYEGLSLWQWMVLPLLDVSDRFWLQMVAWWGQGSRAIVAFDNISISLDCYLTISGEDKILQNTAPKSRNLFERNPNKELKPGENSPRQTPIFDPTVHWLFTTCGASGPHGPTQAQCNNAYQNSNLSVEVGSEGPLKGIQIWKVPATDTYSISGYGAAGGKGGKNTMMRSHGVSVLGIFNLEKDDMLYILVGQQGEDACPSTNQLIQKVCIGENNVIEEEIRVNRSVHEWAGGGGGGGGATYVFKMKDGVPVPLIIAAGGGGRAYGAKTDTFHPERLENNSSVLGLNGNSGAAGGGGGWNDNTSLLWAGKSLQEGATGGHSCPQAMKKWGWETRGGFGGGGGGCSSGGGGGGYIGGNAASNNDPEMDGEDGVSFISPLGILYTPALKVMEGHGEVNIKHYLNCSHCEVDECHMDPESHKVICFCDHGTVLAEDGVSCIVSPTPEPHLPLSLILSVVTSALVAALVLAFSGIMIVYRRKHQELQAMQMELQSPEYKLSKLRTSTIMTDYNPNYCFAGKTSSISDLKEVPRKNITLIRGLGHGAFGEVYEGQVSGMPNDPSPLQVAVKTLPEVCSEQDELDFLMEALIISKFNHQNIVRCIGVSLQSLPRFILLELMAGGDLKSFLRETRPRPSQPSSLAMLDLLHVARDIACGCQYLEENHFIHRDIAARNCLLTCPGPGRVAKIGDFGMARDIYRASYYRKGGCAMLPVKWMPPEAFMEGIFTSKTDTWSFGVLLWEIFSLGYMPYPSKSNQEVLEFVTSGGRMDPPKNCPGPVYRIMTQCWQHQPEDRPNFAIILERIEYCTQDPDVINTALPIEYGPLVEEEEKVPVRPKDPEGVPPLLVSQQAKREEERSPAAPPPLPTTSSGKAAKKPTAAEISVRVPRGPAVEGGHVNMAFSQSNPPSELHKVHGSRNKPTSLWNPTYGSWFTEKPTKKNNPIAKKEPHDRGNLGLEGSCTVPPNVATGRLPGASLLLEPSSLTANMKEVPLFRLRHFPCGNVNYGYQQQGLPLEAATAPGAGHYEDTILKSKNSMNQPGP
UniProt P10398: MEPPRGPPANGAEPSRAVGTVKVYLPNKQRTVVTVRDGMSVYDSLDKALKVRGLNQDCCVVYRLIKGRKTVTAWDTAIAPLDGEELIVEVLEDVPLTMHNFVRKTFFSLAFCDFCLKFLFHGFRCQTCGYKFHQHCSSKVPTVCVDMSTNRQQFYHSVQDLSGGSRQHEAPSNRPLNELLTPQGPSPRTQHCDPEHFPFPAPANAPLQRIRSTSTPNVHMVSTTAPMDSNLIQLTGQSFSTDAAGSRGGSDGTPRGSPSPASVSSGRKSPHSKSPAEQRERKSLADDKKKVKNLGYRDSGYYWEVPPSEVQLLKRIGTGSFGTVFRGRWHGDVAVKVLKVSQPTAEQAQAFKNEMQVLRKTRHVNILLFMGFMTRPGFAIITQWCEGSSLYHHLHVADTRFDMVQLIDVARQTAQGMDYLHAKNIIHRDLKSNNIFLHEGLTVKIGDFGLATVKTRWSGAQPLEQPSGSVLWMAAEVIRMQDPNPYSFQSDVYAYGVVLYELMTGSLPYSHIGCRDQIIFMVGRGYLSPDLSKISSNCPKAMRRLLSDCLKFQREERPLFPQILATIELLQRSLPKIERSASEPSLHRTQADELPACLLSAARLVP
UniProt O14965: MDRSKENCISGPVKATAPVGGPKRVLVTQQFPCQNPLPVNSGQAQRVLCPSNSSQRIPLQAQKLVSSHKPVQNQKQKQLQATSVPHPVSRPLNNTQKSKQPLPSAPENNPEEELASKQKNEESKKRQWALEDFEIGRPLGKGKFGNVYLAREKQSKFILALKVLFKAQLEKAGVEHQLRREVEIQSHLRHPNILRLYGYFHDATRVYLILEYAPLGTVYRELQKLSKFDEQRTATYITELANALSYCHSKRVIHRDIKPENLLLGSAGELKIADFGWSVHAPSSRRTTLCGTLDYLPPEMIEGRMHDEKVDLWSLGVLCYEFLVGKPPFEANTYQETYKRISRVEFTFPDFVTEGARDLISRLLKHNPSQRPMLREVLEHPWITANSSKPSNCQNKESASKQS
UniProt P51451: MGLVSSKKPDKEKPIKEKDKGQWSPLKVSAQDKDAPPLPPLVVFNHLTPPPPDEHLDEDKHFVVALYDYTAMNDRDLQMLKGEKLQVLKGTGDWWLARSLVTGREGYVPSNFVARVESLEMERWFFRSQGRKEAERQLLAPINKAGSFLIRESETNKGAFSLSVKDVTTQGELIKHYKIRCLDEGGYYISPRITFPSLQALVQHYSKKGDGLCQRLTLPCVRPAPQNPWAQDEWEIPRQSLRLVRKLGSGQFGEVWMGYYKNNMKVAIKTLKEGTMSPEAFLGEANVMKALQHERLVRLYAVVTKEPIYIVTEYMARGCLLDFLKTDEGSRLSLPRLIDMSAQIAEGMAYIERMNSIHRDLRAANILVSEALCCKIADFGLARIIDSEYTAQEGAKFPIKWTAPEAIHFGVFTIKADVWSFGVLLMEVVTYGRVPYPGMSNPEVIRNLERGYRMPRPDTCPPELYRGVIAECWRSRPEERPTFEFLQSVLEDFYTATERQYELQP
UniProt P51813: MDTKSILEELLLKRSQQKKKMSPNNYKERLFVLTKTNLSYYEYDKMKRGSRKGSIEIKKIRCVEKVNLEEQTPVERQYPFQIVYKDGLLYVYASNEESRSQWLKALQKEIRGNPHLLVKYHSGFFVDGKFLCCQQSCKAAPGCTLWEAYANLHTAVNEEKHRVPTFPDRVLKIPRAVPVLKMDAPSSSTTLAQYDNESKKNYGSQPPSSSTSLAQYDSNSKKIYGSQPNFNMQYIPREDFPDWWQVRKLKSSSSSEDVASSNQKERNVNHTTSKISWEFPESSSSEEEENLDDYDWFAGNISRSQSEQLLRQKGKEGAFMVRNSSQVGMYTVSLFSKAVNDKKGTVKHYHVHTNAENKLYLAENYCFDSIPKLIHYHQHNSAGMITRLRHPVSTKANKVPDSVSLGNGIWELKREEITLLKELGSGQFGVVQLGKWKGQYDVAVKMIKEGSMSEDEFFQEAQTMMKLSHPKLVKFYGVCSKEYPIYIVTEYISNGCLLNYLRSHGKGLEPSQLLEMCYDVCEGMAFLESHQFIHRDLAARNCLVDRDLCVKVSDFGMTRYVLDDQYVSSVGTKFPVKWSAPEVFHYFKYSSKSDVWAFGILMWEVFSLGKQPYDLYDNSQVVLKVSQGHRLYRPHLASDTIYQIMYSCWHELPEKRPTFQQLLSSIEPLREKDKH
UniProt P15056, whole entry, looked up: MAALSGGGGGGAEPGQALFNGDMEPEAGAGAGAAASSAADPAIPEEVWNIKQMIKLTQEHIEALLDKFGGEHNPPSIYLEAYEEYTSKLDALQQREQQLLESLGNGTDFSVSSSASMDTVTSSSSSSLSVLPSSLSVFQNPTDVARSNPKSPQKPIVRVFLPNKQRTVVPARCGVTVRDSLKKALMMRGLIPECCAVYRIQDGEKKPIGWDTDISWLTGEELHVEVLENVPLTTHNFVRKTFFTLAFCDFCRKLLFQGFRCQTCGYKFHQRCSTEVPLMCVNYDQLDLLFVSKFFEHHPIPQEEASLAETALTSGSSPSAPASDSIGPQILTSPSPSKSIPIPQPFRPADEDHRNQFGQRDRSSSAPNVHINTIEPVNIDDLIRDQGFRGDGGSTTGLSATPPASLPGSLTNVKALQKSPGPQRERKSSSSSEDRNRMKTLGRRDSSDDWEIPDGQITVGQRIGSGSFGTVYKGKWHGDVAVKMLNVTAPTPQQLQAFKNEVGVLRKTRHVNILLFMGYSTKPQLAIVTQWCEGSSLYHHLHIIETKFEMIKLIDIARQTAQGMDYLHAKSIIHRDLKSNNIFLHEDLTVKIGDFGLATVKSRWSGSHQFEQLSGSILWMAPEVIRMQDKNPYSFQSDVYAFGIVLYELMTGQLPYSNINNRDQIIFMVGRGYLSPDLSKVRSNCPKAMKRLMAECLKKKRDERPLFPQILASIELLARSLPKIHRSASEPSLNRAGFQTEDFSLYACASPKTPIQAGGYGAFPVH
UniProt Q06187: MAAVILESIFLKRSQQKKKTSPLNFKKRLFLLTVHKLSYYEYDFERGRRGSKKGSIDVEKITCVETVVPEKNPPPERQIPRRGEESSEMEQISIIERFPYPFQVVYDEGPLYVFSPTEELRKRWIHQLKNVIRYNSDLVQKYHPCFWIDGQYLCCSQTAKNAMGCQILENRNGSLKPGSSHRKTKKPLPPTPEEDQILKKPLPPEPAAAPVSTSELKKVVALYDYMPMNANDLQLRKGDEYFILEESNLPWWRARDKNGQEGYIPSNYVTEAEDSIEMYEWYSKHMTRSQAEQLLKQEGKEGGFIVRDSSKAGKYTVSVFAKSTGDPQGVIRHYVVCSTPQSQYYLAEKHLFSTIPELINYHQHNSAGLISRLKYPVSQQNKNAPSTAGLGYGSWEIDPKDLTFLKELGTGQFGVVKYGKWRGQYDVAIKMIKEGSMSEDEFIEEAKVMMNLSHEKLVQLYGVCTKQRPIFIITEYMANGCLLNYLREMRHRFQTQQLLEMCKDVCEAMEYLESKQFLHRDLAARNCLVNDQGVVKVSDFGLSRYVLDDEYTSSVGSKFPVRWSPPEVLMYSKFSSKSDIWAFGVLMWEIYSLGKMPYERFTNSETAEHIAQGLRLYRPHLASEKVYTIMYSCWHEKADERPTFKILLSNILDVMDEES
UniProt Q9UQM7, whole entry: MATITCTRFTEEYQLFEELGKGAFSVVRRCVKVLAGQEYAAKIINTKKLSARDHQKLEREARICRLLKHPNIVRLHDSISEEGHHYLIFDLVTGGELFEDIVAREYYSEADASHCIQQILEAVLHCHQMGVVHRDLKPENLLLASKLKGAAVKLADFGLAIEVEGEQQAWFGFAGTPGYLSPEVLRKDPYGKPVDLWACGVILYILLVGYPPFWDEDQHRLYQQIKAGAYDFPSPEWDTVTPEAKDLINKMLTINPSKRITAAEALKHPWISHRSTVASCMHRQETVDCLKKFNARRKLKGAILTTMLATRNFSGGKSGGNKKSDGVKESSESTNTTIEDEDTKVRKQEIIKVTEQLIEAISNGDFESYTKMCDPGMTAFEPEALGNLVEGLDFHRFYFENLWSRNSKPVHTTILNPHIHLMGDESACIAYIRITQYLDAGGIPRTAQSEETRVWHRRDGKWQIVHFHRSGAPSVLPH
UniProt Q00526: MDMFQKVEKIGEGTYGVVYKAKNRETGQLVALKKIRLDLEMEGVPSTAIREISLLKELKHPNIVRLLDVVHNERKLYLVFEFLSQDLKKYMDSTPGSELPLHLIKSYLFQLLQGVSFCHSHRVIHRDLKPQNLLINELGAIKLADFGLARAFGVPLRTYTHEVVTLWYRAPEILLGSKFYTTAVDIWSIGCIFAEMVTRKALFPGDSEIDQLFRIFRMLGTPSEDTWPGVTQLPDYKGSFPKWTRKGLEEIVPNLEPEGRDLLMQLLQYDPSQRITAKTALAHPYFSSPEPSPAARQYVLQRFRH
UniProt Q00535, whole entry, looked up: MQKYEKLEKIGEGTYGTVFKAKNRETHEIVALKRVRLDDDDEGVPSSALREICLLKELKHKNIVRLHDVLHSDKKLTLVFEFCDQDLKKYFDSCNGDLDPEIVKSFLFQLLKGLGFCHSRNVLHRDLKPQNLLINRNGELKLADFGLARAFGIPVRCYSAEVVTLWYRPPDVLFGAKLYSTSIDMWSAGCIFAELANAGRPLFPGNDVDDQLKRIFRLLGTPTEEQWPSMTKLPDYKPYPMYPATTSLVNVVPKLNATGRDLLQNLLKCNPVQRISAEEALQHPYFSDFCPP

Columns and labels:
Experiment in all cases: kinase-Nluc reporter destabilization hit call (1 = scored as downregulated) (binary); higher = compound decreases kinase abundance
Conditions in all cases: K562, 2-18 h
[1] = target: ABL1 (UniProt P00519)
[2] = target: AKT1 (UniProt P31749)
[3] = target: ALK (UniProt Q9UM73)
[4] = target: ARAF (UniProt P10398)
[5] = target: AURKA (UniProt O14965)
[6] = target: AURKB (UniProt Q96GD4)
[7] = target: AURKC (UniProt Q9UQB9)
[8] = target: BLK (UniProt P51451)
[9] = target: BMX (UniProt P51813)
[10] = target: BRAF (UniProt P15056)
[11] = test system: BRAF_V600E
[12] = target: BTK (UniProt Q06187)
[13] = target: CAMK2A (UniProt Q9UQM7)
[14] = target: CAMK2G (UniProt Q13555)
[15] = target: CDK10 (UniProt Q15131)
[16] = target: CDK2 (UniProt P24941)
[17] = target: CDK3 (UniProt Q00526)
[18] = target: CDK4 (UniProt P11802)
[19] = target: CDK5 (UniProt Q00535)
[20] = target: CDK6 (UniProt Q00534)

Row | SMILES | kinase-Nluc reporter destabilization hit call ([1]; 2.5 µM) | kinase-Nluc reporter destabilization hit call ([2]; 2.5 µM) | kinase-Nluc reporter destabilization hit call ([3]; 2.5 µM) | kinase-Nluc reporter destabilization hit call ([4]; 2.5 µM) | kinase-Nluc reporter destabilization hit call ([5]; 2.5 µM) | kinase-Nluc reporter destabilization hit call ([6]; 2.5 µM) | kinase-Nluc reporter destabilization hit call ([7]; 2.5 µM) | kinase-Nluc reporter destabilization hit call ([8]; 2.5 µM) | kinase-Nluc reporter destabilization hit call ([9]; 2.5 µM) | kinase-Nluc reporter destabilization hit call ([10]; 2.5 µM) | kinase-Nluc reporter destabilization hit call ([11]; 2.5 µM) | kinase-Nluc reporter destabilization hit call ([12]; 2.5 µM) | kinase-Nluc reporter destabilization hit call ([13]; 2.5 µM) | kinase-Nluc reporter destabilization hit call ([14]; 2.5 µM) | kinase-Nluc reporter destabilization hit call ([15]; 2.5 µM) | kinase-Nluc reporter destabilization hit call ([16]; 2.5 µM) | kinase-Nluc reporter destabilization hit call ([17]; 2.5 µM) | kinase-Nluc reporter destabilization hit call ([18]; 2.5 µM) | kinase-Nluc reporter destabilization hit call ([19]; 2.5 µM) | kinase-Nluc reporter destabilization hit call ([20]; 2.5 µM) | kinase-Nluc reporter destabilization hit call ([1]; 10 µM) | kinase-Nluc reporter destabilization hit call ([2]; 10 µM) | kinase-Nluc reporter destabilization hit call ([3]; 10 µM) | kinase-Nluc reporter destabilization hit call ([4]; 10 µM) | kinase-Nluc reporter destabilization hit call ([5]; 10 µM) | kinase-Nluc reporter destabilization hit call ([6]; 10 µM) | kinase-Nluc reporter destabilization hit call ([7]; 10 µM) | kinase-Nluc reporter destabilization hit call ([8]; 10 µM) | kinase-Nluc reporter destabilization hit call ([9]; 10 µM) | kinase-Nluc reporter destabilization hit call ([10]; 10 µM) | kinase-Nluc reporter destabilization hit call ([11]; 10 µM) | kinase-Nluc reporter destabilization hit call ([12]; 10 µM) | kinase-Nluc reporter destabilization hit call ([13]; 10 µM) | kinase-Nluc reporter destabilization hit call ([14]; 10 µM) | kinase-Nluc reporter destabilization hit call ([15]; 10 µM) | kinase-Nluc reporter destabilization hit call ([16]; 10 µM) | kinase-Nluc reporter destabilization hit call ([17]; 10 µM) | kinase-Nluc reporter destabilization hit call ([18]; 10 µM) | kinase-Nluc reporter destabilization hit call ([19]; 10 µM) | kinase-Nluc reporter destabilization hit call ([20]; 10 µM)
1 | COc1cc2c(Oc3ccc4[nH]c(C)cc4c3F)ncnc2cc1OCCCN1CCCC1 [Cediranib (maleate)] | inactive: 0 | inactive: 0 | inactive: 0 | inactive: 0 | inactive: 0 | inactive: 0 | inactive: 0 | inactive: 0 | inactive: 0 | inactive: 0 | inactive: 0 | inactive: 0 | inactive: 0 | inactive: 0 | inactive: 0 | inactive: 0 | inactive: 0 | inactive: 0 | inactive: 0 | inactive: 0 | – | – | – | – | – | – | – | – | – | – | – | – | – | – | – | – | – | – | – | –
2 | CCS(=O)(=O)N1CC(CC#N)(n2cc(-c3ncnc4[nH]ccc34)cn2)C1 [Baricitinib] | – | – | – | – | – | – | – | – | – | – | – | – | – | – | – | – | – | – | – | – | inactive: 0 | inactive: 0 | inactive: 0 | inactive: 0 | inactive: 0 | inactive: 0 | inactive: 0 | inactive: 0 | inactive: 0 | inactive: 0 | inactive: 0 | inactive: 0 | inactive: 0 | inactive: 0 | inactive: 0 | inactive: 0 | inactive: 0 | inactive: 0 | inactive: 0 | inactive: 0
3 | COc1ncc(F)cc1CNc1ccc(Cc2c[nH]c3ncc(C)cc23)c(F)n1 | – | – | – | – | – | – | – | – | – | – | – | – | – | – | – | – | – | – | – | – | inactive: 0 | inactive: 0 | inactive: 0 | inactive: 0 | inactive: 0 | inactive: 0 | inactive: 0 | inactive: 0 | inactive: 0 | inactive: 0 | inactive: 0 | inactive: 0 | inactive: 0 | inactive: 0 | inactive: 0 | inactive: 0 | inactive: 0 | inactive: 0 | inactive: 0 | inactive: 0
4 | O=C1Nc2ccccc2/C1=C/c1ccccn1 [(E/Z)-GSK-3β inhibitor 1] | – | – | – | – | – | – | – | – | – | – | – | – | – | – | – | – | – | – | – | – | inactive: 0 | inactive: 0 | inactive: 0 | inactive: 0 | inactive: 0 | inactive: 0 | inactive: 0 | inactive: 0 | inactive: 0 | inactive: 0 | inactive: 0 | inactive: 0 | inactive: 0 | inactive: 0 | inactive: 0 | inactive: 0 | inactive: 0 | inactive: 0 | inactive: 0 | inactive: 0
5 | COC(=O)[C@H](CC(C)C)NC(=O)c1ccc(NC[C@@H](N)CS)cc1-c1cccc2ccccc12 [GGTI298 (Trifluoroacetate)] | – | – | – | – | – | – | – | – | – | – | – | – | – | – | – | – | – | – | – | – | inactive: 0 | inactive: 0 | inactive: 0 | inactive: 0 | inactive: 0 | inactive: 0 | inactive: 0 | inactive: 0 | inactive: 0 | inactive: 0 | inactive: 0 | inactive: 0 | inactive: 0 | inactive: 0 | inactive: 0 | inactive: 0 | inactive: 0 | inactive: 0 | inactive: 0 | inactive: 0
6 | N=C(N)NC(=O)c1nc(Cl)c(N)nc1N [Amiloride (hydrochloride)] | – | – | – | – | – | – | – | – | – | – | – | – | – | – | – | – | – | – | – | – | inactive: 0 | inactive: 0 | inactive: 0 | inactive: 0 | inactive: 0 | inactive: 0 | inactive: 0 | inactive: 0 | inactive: 0 | inactive: 0 | inactive: 0 | inactive: 0 | inactive: 0 | inactive: 0 | inactive: 0 | inactive: 0 | inactive: 0 | inactive: 0 | inactive: 0 | inactive: 0
7 | O=C(O)c1ccc2c(c1)nc(Nc1cccc(Cl)c1)c1ccncc12 [Silmitasertib] | – | – | – | – | – | – | – | – | – | – | – | – | – | – | – | – | – | – | – | – | inactive: 0 | inactive: 0 | inactive: 0 | inactive: 0 | inactive: 0 | inactive: 0 | inactive: 0 | inactive: 0 | active: 1 | active: 1 | inactive: 0 | inactive: 0 | inactive: 0 | inactive: 0 | inactive: 0 | inactive: 0 | inactive: 0 | inactive: 0 | inactive: 0 | inactive: 0
8 | COc1cc2nccc(Nc3cc(OC)c(OC)c(OC)c3)c2cc1OC [GAK inhibitor 49 (hydrochloride)] | – | – | – | – | – | – | – | – | – | – | – | – | – | – | – | – | – | – | – | – | inactive: 0 | inactive: 0 | inactive: 0 | inactive: 0 | inactive: 0 | inactive: 0 | inactive: 0 | inactive: 0 | inactive: 0 | inactive: 0 | inactive: 0 | inactive: 0 | inactive: 0 | inactive: 0 | inactive: 0 | inactive: 0 | inactive: 0 | inactive: 0 | inactive: 0 | inactive: 0
9 | CS(=O)(=O)N1CCN(Cc2cc3nc(-c4cccc5[nH]ncc45)nc(N4CCOCC4)c3s2)CC1 [Pictilisib] | – | – | – | – | – | – | – | – | – | – | – | – | – | – | – | – | – | – | – | – | inactive: 0 | inactive: 0 | inactive: 0 | inactive: 0 | inactive: 0 | inactive: 0 | inactive: 0 | inactive: 0 | inactive: 0 | inactive: 0 | inactive: 0 | inactive: 0 | inactive: 0 | inactive: 0 | inactive: 0 | inactive: 0 | inactive: 0 | inactive: 0 | inactive: 0 | inactive: 0
